According to the supplement of paper PMC10849652:
The list shows a part of the results.

Chains of the proteins cited; added tags and fusions are not shown. Lines headed by an entry give the natural chain unless they say otherwise; changes in a name come on top.
UniProt O95057: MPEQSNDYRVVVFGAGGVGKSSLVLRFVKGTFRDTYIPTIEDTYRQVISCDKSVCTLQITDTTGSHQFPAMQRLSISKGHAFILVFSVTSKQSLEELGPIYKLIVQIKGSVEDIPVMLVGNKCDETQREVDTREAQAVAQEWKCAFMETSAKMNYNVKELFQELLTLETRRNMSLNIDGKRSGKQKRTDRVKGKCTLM
UniProt Q8N5I4: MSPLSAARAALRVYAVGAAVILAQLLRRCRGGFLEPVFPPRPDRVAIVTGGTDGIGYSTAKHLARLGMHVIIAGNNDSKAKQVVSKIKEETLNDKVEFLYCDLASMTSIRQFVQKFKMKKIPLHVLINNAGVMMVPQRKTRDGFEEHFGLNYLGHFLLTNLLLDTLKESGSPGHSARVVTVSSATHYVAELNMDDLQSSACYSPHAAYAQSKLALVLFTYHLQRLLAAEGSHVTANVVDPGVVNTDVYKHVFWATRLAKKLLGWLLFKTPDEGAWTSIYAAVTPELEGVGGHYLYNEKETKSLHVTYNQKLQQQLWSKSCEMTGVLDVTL
UniProt Q9BSY9: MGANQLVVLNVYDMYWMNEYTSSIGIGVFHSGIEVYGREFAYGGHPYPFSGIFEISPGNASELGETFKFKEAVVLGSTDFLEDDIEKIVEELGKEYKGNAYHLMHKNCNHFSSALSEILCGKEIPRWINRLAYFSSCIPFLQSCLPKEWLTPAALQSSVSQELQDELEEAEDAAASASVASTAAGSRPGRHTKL
UniProt Q9NUI1: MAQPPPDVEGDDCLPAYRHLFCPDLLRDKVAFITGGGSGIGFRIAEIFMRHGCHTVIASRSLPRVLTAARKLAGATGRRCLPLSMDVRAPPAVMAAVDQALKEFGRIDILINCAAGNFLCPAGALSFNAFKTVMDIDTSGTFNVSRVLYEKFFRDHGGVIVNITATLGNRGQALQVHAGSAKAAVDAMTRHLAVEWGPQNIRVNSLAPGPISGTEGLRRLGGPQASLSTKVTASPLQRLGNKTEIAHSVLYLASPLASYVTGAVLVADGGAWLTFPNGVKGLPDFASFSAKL
UniProt P51530: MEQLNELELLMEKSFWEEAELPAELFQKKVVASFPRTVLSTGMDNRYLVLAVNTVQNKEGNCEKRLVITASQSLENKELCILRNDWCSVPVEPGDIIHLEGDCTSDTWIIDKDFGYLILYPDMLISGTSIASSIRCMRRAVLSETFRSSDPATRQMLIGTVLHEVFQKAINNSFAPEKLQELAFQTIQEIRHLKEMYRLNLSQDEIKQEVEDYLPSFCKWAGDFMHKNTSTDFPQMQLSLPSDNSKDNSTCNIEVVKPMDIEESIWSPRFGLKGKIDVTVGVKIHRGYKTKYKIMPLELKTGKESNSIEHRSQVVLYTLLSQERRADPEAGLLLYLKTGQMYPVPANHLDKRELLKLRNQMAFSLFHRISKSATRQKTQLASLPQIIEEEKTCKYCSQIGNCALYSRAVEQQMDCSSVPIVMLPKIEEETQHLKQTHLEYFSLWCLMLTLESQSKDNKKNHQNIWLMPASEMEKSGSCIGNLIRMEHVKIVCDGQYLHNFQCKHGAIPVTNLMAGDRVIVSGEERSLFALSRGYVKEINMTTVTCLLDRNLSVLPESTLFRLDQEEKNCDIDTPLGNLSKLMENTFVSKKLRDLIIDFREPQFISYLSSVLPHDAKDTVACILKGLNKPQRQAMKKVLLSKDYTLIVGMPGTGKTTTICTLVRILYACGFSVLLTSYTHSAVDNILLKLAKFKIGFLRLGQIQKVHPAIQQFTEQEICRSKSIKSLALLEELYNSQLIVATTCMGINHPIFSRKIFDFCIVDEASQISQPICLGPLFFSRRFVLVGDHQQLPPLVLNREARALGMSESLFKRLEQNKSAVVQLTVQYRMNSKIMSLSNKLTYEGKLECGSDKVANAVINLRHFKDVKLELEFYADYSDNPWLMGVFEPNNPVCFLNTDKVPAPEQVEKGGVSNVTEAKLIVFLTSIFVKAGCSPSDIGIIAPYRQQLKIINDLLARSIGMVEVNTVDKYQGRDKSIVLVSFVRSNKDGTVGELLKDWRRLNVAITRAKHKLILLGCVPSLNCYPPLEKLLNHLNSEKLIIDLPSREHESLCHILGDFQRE
UniProt Q9Y2R4: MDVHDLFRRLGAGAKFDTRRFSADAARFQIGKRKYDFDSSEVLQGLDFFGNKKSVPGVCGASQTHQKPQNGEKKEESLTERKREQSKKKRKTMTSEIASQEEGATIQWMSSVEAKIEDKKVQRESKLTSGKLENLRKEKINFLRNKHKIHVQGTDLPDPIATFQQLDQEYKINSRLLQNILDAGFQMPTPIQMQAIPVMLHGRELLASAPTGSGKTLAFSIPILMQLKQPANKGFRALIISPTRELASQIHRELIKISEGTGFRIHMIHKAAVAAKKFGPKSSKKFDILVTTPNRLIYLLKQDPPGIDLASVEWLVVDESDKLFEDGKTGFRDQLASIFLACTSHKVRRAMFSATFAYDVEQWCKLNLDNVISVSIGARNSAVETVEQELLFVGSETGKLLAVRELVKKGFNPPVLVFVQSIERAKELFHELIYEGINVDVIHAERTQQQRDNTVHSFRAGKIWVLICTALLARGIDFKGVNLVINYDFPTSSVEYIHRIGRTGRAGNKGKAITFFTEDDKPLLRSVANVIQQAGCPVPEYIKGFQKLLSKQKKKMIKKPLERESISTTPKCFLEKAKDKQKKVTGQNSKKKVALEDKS
UniProt A8MPP1: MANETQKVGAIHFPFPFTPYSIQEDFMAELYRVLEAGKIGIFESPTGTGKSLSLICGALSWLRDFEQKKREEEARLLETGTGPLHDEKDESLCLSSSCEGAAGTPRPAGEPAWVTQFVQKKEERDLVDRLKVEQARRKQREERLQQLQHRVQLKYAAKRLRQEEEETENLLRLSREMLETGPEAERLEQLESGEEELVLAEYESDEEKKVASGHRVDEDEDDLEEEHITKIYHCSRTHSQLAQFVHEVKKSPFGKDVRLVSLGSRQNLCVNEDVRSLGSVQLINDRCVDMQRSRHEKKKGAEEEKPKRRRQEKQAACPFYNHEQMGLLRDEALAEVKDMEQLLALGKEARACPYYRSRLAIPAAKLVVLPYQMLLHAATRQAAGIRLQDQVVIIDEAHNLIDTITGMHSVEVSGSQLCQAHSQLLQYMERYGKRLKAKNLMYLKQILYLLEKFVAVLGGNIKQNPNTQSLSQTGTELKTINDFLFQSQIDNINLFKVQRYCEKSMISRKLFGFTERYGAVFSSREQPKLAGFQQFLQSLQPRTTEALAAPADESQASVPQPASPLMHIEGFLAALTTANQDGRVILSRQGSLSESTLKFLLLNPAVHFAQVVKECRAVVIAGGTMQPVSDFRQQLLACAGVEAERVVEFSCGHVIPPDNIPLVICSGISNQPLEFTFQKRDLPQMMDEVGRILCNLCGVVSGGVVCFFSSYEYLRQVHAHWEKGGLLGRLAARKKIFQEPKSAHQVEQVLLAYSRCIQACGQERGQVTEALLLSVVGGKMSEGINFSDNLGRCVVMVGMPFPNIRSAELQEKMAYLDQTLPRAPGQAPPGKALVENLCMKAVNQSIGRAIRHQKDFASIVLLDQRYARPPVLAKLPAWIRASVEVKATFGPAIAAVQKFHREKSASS
UniProt Q9NVP1: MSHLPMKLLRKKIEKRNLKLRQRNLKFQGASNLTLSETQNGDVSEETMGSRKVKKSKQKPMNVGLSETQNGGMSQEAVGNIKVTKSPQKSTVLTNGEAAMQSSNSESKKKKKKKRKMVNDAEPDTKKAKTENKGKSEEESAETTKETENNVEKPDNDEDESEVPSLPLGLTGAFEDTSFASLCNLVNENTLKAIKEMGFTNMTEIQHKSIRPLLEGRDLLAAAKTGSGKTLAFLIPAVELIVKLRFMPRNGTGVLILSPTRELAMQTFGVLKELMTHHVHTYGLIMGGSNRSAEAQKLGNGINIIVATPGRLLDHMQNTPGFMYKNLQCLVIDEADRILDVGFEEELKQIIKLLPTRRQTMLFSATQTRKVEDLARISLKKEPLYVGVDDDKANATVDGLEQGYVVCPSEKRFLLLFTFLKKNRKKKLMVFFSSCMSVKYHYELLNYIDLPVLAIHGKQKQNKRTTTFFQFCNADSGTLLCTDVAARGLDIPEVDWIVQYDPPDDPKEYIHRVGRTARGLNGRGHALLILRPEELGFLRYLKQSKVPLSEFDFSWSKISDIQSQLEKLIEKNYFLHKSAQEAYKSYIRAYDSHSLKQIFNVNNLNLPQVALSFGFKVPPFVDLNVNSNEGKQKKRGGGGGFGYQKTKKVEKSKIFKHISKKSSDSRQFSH
UniProt Q86XP3: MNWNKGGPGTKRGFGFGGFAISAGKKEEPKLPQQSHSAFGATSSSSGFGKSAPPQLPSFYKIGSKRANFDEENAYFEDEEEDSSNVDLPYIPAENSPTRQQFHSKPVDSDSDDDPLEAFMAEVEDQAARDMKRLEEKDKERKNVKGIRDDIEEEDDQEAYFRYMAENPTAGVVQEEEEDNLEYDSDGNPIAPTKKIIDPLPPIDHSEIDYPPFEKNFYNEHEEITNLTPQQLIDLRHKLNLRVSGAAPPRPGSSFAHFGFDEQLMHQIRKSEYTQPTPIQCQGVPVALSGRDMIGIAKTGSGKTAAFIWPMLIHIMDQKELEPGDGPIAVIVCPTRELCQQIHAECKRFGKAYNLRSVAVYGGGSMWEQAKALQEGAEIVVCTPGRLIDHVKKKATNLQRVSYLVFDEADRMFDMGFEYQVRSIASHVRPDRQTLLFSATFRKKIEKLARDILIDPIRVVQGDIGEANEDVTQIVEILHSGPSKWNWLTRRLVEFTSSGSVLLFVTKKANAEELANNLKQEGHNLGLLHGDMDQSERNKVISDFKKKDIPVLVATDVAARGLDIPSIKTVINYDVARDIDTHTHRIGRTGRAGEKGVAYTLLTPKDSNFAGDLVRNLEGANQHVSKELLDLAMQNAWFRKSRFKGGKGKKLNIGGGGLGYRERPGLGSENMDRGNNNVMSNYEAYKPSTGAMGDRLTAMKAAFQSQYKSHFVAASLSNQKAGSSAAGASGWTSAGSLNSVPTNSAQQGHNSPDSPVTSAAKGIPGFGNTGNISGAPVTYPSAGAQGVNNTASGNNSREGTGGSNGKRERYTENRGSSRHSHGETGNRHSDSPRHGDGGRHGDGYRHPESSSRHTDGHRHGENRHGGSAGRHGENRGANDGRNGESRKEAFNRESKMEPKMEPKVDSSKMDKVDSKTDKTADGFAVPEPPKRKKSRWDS
UniProt Q9H4E7, whole entry, looked up: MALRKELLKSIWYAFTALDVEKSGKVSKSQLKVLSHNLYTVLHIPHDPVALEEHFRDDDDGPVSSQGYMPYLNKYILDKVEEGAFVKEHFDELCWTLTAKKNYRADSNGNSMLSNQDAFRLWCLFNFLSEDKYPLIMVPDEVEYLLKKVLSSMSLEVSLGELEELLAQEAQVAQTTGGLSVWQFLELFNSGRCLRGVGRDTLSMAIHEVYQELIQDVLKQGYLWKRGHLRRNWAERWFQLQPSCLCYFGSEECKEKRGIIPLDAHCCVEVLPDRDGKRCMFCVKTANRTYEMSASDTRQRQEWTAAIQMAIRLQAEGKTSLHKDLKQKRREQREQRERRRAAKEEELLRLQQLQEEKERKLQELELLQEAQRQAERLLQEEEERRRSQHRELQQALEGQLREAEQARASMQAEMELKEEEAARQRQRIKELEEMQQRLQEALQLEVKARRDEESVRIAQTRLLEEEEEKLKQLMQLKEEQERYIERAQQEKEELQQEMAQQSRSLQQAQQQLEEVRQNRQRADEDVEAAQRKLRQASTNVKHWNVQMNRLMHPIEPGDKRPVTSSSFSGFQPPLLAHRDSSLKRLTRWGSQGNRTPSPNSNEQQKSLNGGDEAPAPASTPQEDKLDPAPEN
UniProt Q7L7V1: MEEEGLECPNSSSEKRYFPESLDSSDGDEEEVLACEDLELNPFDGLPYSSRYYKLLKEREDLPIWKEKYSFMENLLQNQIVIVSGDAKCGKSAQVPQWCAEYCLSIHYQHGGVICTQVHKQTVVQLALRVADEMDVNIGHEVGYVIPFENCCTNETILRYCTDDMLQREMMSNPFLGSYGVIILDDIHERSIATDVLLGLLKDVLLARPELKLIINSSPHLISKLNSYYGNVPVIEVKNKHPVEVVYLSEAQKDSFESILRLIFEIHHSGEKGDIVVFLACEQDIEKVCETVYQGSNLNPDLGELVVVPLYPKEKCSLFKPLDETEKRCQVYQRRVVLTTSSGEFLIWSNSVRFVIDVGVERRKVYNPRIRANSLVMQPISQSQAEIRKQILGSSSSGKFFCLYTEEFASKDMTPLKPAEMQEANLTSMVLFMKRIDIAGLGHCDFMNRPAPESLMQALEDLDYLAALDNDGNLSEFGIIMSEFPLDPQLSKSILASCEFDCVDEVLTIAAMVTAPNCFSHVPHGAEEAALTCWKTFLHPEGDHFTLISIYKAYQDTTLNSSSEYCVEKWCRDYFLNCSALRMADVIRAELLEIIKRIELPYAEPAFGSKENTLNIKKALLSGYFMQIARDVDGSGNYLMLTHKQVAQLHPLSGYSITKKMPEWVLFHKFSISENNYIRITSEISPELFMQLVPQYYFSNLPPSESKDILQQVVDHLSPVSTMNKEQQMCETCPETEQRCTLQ

What was measured:
Assay in all cases: log2 fold change, soluble protein after heating vs DMSO (PISA); higher = thermal stabilisation; K562 cells, 10 uM, 30 min; active = over 0.2 and 3.5 SD of the protein, either way, in both replicates (recomputed)
[1] = compound: C1=CC=C(C=C1)[C@H](COC2=CC3=C(C=C2)NC(=O)N3)NC(=O)C4=CC=CN(C4=O)CC5=CC(=C(C=C5)F)F
In short: (§1)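 For each measurement, 10 μM compound was applied for 30 min to K562 cells at 2×10^6 cells/mL. Aliquots were heated for 3 min across 48°C-58°C, pooled, and extracted in PBS with 0.5% NP-40 at 4°C; the supernatant after 21,000xg for 90 min was soluble protein. This was quantified by TMTpro 16plex LC-MS/MS with channel sums equalised, and thermal stability was reported relative to control samples from duplicates, on a log2 fold-change scale.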

[2] = compound: CC1=C2C(=CC=C1)N=C(N(C2=O)C3=CC=CC=C3C)CN4C=NC5=C(N=CN=C54)N
In short: as §1

[3] = compound: Cc1sc2c(c1C)C(c1ccc(Cl)cc1)=N[C@@H](CC(=O)OC(C)(C)C)c1nnc(C)n1-2
In short: as §1

[4] = compound: CC1=C(SC2=C1C(=N[C@H](C3=NN=C(N32)C)CC(=O)N)C4=CC=C(C=C4)Cl)C
In short: as §1

[5] = compound: c1ccc([C@@H]2C[C@H]2NC2CCNCC2)cc1
In short: as §1

Row | Target | log2 fold change [1] | log2 fold change [2] | log2 fold change [3] | log2 fold change [4] | log2 fold change [5]
1 | DDX11 (UniProt Q96FC9) | inactive: -0.068 | inactive: 0.335 | inactive: 0.059 |  | 
2 | DGKA (UniProt P23743) | inactive: -0.1 | inactive: 0.322 |  |  | 
3 | DEF8 (UniProt Q6ZN54) | inactive: -0.069 | inactive: -0.04 |  |  | 
4 | DDX20 (UniProt Q9UHI6) | inactive: 0.02 |  | inactive: 0.111 | inactive: -0.19 | inactive: -0.168
5 | DET1 isoform 2 (UniProt Q7L5Y6) |  |  |  | inactive: 0.009 | inactive: 0.084
6 | DIRAS1 (UniProt O95057) |  |  | inactive: 0.05 |  | 
7 | DHRSX (UniProt Q8N5I4) | inactive: -0.077 | inactive: 0.071 |  | inactive: 0.055 | inactive: 0.123
8 | DESI2 (UniProt Q9BSY9) | inactive: -0.051 |  | inactive: 0.014 |  | 
9 | DHTKD1 (UniProt Q96HY7) | inactive: -0.136 |  | inactive: -0.132 |  | 
10 | DECR2 (UniProt Q9NUI1) | inactive: -0.105 | inactive: 0.077 | inactive: 0.035 |  | 
11 | DMTN isoform 2 (UniProt Q08495) | inactive: 0.044 |  | inactive: 0.091 |  | 
12 | DNA2 (UniProt P51530) | inactive: 0.211 | inactive: 0.2 |  |  | 
13 | DDR1 isoform 5 (UniProt Q08345) |  | inactive: 0.163 |  | inactive: -0.355 | inactive: 0.073
14 | DMKN (UniProt Q6E0U4) | inactive: -0.289 | inactive: -0.239 | inactive: -0.518 |  | 
15 | DGKE (UniProt P52429) | inactive: -0.059 |  | inactive: -0.023 | inactive: -0.026 | inactive: -0.093
16 | DLK1 (UniProt P80370) |  | inactive: 0.198 |  | inactive: 0.065 | inactive: 0.051

Row | Target | log2 fold change [1] | log2 fold change [2] | log2 fold change [3] | log2 fold change [4] | log2 fold change [5]
17 | DDX52 (UniProt Q9Y2R4) | inactive: 0.273 |  |  | inactive: -0.2 | inactive: -0.017
18 | DDX11L8 (UniProt A8MPP1) | inactive: 0.02 |  |  | inactive: 0.152 | inactive: -0.379
19 | DDX18 (UniProt Q9NVP1) |  |  | inactive: 0.173 | inactive: -0.131 | inactive: 0.046
20 | DDX42 (UniProt Q86XP3) | inactive: -0.231 |  | inactive: -0.124 | inactive: 0.029 | inactive: -0.047
21 | DENND1A isoform 6 (UniProt Q8TEH3) | inactive: 0.152 | inactive: 0.146 | inactive: 0.284 |  | 
22 | DIEXF (UniProt Q68CQ4) |  | inactive: -0.061 |  | inactive: 0.052 | inactive: -0.139
23 | DDX55 (UniProt Q8NHQ9) | inactive: 0.131 | inactive: 0.056 | inactive: -0.009 |  | 
24 | DEF6 (UniProt Q9H4E7) |  |  | inactive: 0.026 | inactive: -0.156 | inactive: 0.14
25 | DLC1 (UniProt Q96QB1) |  | inactive: 0.212 |  |  | 
26 | DHRS13 (UniProt Q6UX07) |  | inactive: 0.099 | inactive: 0.218 | inactive: 0.084 | inactive: -0.14
27 | DHX32 (UniProt Q7L7V1) |  |  | inactive: 0.035 |  | 
28 | DERPC (UniProt P0CG12) | inactive: 0 | inactive: -0.015 |  |  | 
29 | DDX28 (UniProt Q9NUL7) |  |  |  | inactive: -0.102 | inactive: 0.041
30 | DHX34 (UniProt Q14147) |  |  | inactive: -0.091 |  | 
31 | DENND1B (UniProt Q6P3S1) | inactive: -0.075 | inactive: 0.109 |  | inactive: 0.009 | inactive: -0.045
32 | DMTF1 (UniProt Q9Y222) |  | inactive: 0.2 | inactive: -0.095 | inactive: -0.081 | inactive: 0.034

Quoted from the listing.
Entry for DERPC (UniProt P0CG12) under log2 fold change [1]: inactive: 0
Entry for DDX52 (UniProt Q9Y2R4) under log2 fold change [4]: inactive: -0.2
